# Values from PubChem BioAssay AID1259405 (NCATS, 2018)
# Purpose: 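Silenced genes that increase secreted GFP made by CHO cells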 (primary screen)
# Cell system: Chinese hamster CHO-K1 ovary cells with stable secreted eGFP expression
# Reagent: single siRNA against mouse genes, 0.8 pmol siRNA per well (2 µl of 400 nM stock)
# Timing: 3 days
# Detection: 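Per-well intracellular GFP measured by laser scanning cytometry, plus viability from ATP luminescence, each relative to plate median of non-targeting control wells, in %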
# Scale: GFP, % of control: higher = more GFP per well, higher productivity; viability (ATP), % of control: higher = more viable cells (more ATP)
# Rule for the call: 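a knock-down is called active if GFP reaches 120% or more of non-targeting control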
# Here is a random part of about 50,000 deposited reagents. In the full data, about 4,000 (8%) got an active call. 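Mouse siRNA library applied to hamster cells; one well for each siRNA.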 The numbers tell different reagents against one gene apart. No sequences are given here.
Gene,reagent no.,"GFP, % of control","viability (ATP), % of control",outcome
Tdp2,1,83.8,91.1,inactive
Tdp2,2,49.6,62.9,inactive
Tdp2,3,78.7,82.4,inactive
Hs3st3a1,1,124,104,active
Hs3st3a1,2,164,113,active
Hs3st3a1,3,99.9,101,inactive
Ifi27l2b,1,86.3,50.6,inactive
Ifi27l2b,2,72.9,61,inactive
Ifi27l2b,3,69.5,78.7,inactive
Smco4,1,133,137,active
Smco4,2,64.4,98.6,inactive
Smco4,3,189,148,active
Rpl34,1,118,74.6,inactive
Rpl34,2,24.3,14.3,inactive
Rpl34,3,28,22.9,inactive
Mafk,1,73.3,83.4,inactive
Mafk,2,75.3,70.5,inactive
Mafk,3,65,58.8,inactive
Camkv,1,70.2,72.6,inactive
Or51i1,1,64.4,78.3,inactive
Or51i1,2,84.9,34.1,inactive
Or51i1,3,32.3,43.9,inactive
Slfn8,1,93.7,85.8,inactive
Slfn8,2,53.9,56.6,inactive
Slfn8,3,64.6,72.4,inactive
Ak1,1,62.2,77.4,inactive
Arl4d,1,72.7,51.1,inactive
Arl4d,2,44,74.1,inactive
Arl4d,3,69,61.3,inactive
Arl4d,4,53.9,57,inactive
Arl4d,5,57.1,102,inactive
Arl4d,6,98.6,93.2,inactive
Dgkd,1,114,96.3,inactive
Prdx6,1,77.3,86.2,inactive
Prdx6,2,73.9,64.5,inactive
Prdx6,3,86.8,70,inactive
Fos,1,129,67.7,active
Fos,2,69.5,92.5,inactive
Fos,3,104,80.3,inactive
Dusp8,1,72.5,84.9,inactive
Dusp8,2,46.4,46.7,inactive

Continued, starting with the last 7 of the part before.
Gene,reagent no.,"GFP, % of control","viability (ATP), % of control",outcome
Prdx6,2,73.9,64.5,inactive
Prdx6,3,86.8,70,inactive
Fos,1,129,67.7,active
Fos,2,69.5,92.5,inactive
Fos,3,104,80.3,inactive
Dusp8,1,72.5,84.9,inactive
Dusp8,2,46.4,46.7,inactive
Sra1,1,27.6,22.6,inactive
Sra1,2,119,96.3,inactive
Sra1,3,70.3,85.2,inactive
Opn3,1,101,75.3,inactive
Opn3,2,58.6,67.4,inactive
Opn3,3,50.6,70.2,inactive
Robo1,1,68.7,87.7,inactive
Robo1,2,76.4,93.1,inactive
Robo1,3,42.1,60.1,inactive
Exosc2,1,117,127,inactive
Exosc2,2,92.7,105,inactive
Exosc2,3,53.1,43.1,inactive
Hsd11b1,1,76.8,73.6,inactive
Hsd11b1,2,65,77.8,inactive
Hsd11b1,3,59.6,66.9,inactive
Smr3a,1,78.3,48.6,inactive
Smr3a,2,34,56.9,inactive
Smr3a,3,43.2,42.5,inactive
Zfp418,1,116,87.9,inactive
Zfp418,2,60,77.4,inactive
Zfp418,3,110,97.8,inactive
Prpf6,1,70.5,68.6,inactive
Prpf6,2,85.2,67.8,inactive
Prpf6,3,92.2,76.1,inactive
Atm,1,128,94.6,active
Has1,1,92.6,117,inactive
Has1,2,89.1,112,inactive
Has1,3,89.5,120,inactive
Hadha,1,66,69.5,inactive
Hadha,2,79.2,65.5,inactive
Hadha,3,111,83.4,inactive
Alg13,1,69.2,67,inactive
Alg13,2,61.4,40.7,inactive
Alg13,3,76.6,65.4,inactive
Aurka,1,73.5,71.9,inactive
Aurka,2,94.4,72.3,inactive
Aurka,3,79.5,69.9,inactive
Fez1,1,68.2,68.9,inactive
Fez1,2,102,86.8,inactive
Fez1,3,131,78.8,active
Ly6h,1,87.9,82.2,inactive
Ly6h,2,96.1,93.8,inactive
Ly6h,3,69.8,73.7,inactive
Edn2,1,86.9,75.7,inactive
Edn2,2,69.1,77.3,inactive
Edn2,3,70.4,87.3,inactive
Caskin2,1,74.3,46.6,inactive
Caskin2,2,76.9,79,inactive
Caskin2,3,50.1,21.7,inactive
Serpina12,1,49.2,74.5,inactive
Serpina12,2,35.5,60.2,inactive
Serpina12,3,112,86.7,inactive
Chil3,1,95,64,inactive
Chil3,2,72.3,78,inactive
Chil3,3,49.2,43.2,inactive
Msh5,1,48.4,69.9,inactive
Msh5,2,61.4,75.8,inactive
Msh5,3,39.8,53.1,inactive
1700073E17Rik,1,123,76.3,active
1700073E17Rik,2,108,63.7,inactive
1700073E17Rik,3,82.9,87.7,inactive
Taf5,1,91.2,54.6,inactive
Taf5,2,56.9,72.7,inactive
Taf5,3,131,127,active
Or8b37,1,71.4,69.3,inactive
Or8b37,2,61.7,49.5,inactive
Or8b37,3,89.4,124,inactive
